Test results: patent publication US20010029293A1
These are yes or no findings as the source states them, for the method shown. Some entries that bind do so weakly or less than the wild type.

T1: soluble human ICAM-R (human) (UniProt P32942)
T1 sequence: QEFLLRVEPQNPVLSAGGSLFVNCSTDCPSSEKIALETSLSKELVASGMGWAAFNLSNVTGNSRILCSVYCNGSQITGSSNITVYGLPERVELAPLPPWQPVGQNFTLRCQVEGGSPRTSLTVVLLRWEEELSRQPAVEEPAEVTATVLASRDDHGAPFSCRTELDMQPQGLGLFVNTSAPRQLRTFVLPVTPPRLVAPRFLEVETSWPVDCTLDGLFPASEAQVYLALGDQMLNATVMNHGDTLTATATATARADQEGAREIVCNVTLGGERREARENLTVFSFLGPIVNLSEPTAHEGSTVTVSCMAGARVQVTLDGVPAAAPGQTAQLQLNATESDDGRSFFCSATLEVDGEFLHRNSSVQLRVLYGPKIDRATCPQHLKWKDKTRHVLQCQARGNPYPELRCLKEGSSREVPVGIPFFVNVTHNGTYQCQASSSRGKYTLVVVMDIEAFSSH

B1: ICR-8.1 HuVHV/MuVK (antibody, human IgG4, V domains shown)
VH: QVQLVQSGAEVKKPGASVKVSCKASGYTFTDCIILWVRQAPGQGLEWMGKINPYFGTTTYNLKFKGRVTITVDTSTSTAYMELSSLRSEDTAVYYCARKEAYPDAMDYWGQGTLVTVSS
VL: DAVMTQTPLSLPVSLGDQASISCRSSQSLVHSNGDTYLHWYLQKPGQSPQLLIYKVSNRFSGVPDRFSGSGSGTDFTLKLSRVEAEDLGVYFCSQSTHVPYTFGGGTKLEIK
B2: ICR-8.1 miHuVH/HuVK (antibody, human IgG4, V domains shown)
VH: QVQLVQSGAEVKKPGASVKVSCKASGYTFTDCIILWVRQAPGQGLEWMGKINPYFGTTTYAQKFQGRVTITADTSTSTAYMELSSLRSEDTAVYYCARKEAYPDAMDYWGQGTLVTVSS
VL: DIVMTQSPLSLPVTPGEPASISCRSSQSLVHSNGDTYLHWYLQKPGQSPQLLIYKVSNRFSGVPDRFSGSGSGTDFTLKISRVEAEDVGVYYCSQSTHVPYTFGQGTKVEIK
B3: ICR-8.1 miHuVH/MuVK (antibody, human IgG4, V domains shown)
VH: QVQLVQSGAEVKKPGASVKVSCKASGYTFTDCIILWVRQAPGQGLEWMGKINPYFGTTTYAQKFQGRVTITADTSTSTAYMELSSLRSEDTAVYYCARKEAYPDAMDYWGQGTLVTVSS
VL: DAVMTQTPLSLPVSLGDQASISCRSSQSLVHSNGDTYLHWYLQKPGQSPQLLIYKVSNRFSGVPDRFSGSGSGTDFTLKLSRVEAEDLGVYFCSQSTHVPYTFGGGTKLEIK

biological target: T1, soluble human ICAM-R (human); assay: ELISA on coated shICAM-R

binding, binds:
B1, B2, B3
